Where “and” joins values, the source holds several entries; their conditions need not be identical. Equal entries are not always repeated. Structures can show the parent of a compound that is named as a salt. Hit rate of the full screen: of about 2,100 compounds, about 180 (8.6%) showed an effect of 50% or more. Some of the results follow.
What follows are compounds tested on MOLM1 and UCSD/AML1 (averaged) (assay: cell viability relative to DMSO control (POC); higher = less growth inhibition). Conditions: 1 µM; 72 h.
Method: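 Primary viability screen in the 3q26 EVI1-high AML cell lines MOLM1 and UCSD/AML1 (1.5e3 cells/well, 384-well), compounds at 1 uM for 72 h. ATP CellTiter-Glo read-out given as percent of viable cells over DMSO control (POC), averaged over duplicates. DMSO was the negative control and 5 uM etoposide the positive control. This mapping covers the MicroSource Spectrum and Selleck anticancer libraries (drug names).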
COc1ccc(C(=O)O)c(O)c1OC was tested, and the cell viability was 97.8%.
In the case of O=c1c(-c2ccc(O)cc2)coc2cc(O)ccc12, the cell viability is reported as 93.7%.
In the case of C=C1[C@@H]([C@@]2(C)C=CC(=O)C(C)(C)[C@@H]2CC(=O)OC)CC[C@@]2(C)[C@H](c3ccoc3)OC(=O)[C@H]3O[C@]132, the cell viability is reported as 102%.
In the case of CN1C(=O)OC(C)(C)C1=O, the cell viability is reported as 93.2%.
In the case of CN(C)CCCSC(=N)N, the cell viability is reported as 117%.
NCCNCCNCCN gave a cell viability of 116%.
C/C(=C\C(=O)Nc1ccccc1C(=O)O)c1ccc2ccccc2c1 gave a cell viability of 104%.
O=C(CCc1ccc(O)cc1)c1c(O)cc(O)cc1O[C@@H]1OC(CO)[C@@H](O)[C@@H](O)C1O (some centres undefined) gave a cell viability of 104%.
COc1c(C)c2c(c(O)c1C/C=C(\C)CCC(=O)O)C(=O)OC2 was tested, and the cell viability was 44%.
Compound COc1c(C)c2c(c(O)c1C/C=C(\C)CCC(=O)O)C(=O)OC2 [Mycophenolic (Mycophenolate)] has a cell viability of 42.4%.
In the case of O=C(O)c1ccc(S(=O)(=O)N(Cl)Cl)cc1, the cell viability is reported as 101%.
With O=C(Oc1ccccc1C(=O)O)c1ccccc1O the cell viability was 104%.
CC(C)c1ccc2c(c1)CC[C@H]1[C@](C)(CN)CCC[C@]21C was tested, and the cell viability was 94.4%.
Work on CCN1CCCC(OC(=O)C(c2ccccc2)c2ccccc2)C1 (centres undefined) yielded a cell viability of 98.7%.
For Nc1ccc(C(=O)O)cc1, the cell viability was 101%.
In the case of COC(=O)C[C@H]1C(C)(C)[C@@H](OC(C)=O)[C@@H]2CC3=C4CC(=O)O[C@@H](c5ccoc5)[C@]4(C)CC[C@@H]3[C@@]1(C)C2=O, the cell viability is reported as 103%.
For CO[C@H]1C[C@@H]2CC[C@@H](C)[C@@](O)(O2)C(=O)C(=O)N2CCCC[C@H]2C(=O)O[C@H]([C@H](C)C[C@@H]2CC[C@@H](O)[C@H](OC)C2)CC(=O)[C@H](C)/C=C(\C)[C@@H](O)[C@@H](OC)C(=O)[C@H](C)C[C@H](C)/C=C/C=C/C=C/1C [Rapamycin (Sirolimus)], the cell viability was 41.5%.
CO[C@H]1C[C@@H]2CC[C@@H](C)[C@@](O)(O2)C(=O)C(=O)N2CCCC[C@H]2C(=O)O[C@H]([C@H](C)C[C@@H]2CC[C@@H](O)[C@H](OC)C2)CC(=O)[C@H](C)/C=C(\C)[C@@H](O)[C@@H](OC)C(=O)[C@H](C)C[C@H](C)/C=C/C=C/C=C/1C gave a cell viability of 44%.
Work on Cc1nc(C)c(Cl)c(O)c1Cl yielded a cell viability of 108%.
Compound CCN(CC)CCCC(C)Nc1c2ccc(Cl)cc2nc2ccc(OC)cc12 (centres undefined) has a cell viability of 94.2%.
With O=C(O)P(=O)(O)O the cell viability was 108%.
In the case of CC1(C)C2CC(=O)O[C@@]3(C)C4=CC(=O)O[C@@H](c5ccoc5)[C@]4(C)CCC3[C@@]2(C)C=C[C@H]1O (some centres undefined), the cell viability is reported as 95.9%.
Work on C#C[C@]1(O)CC[C@H]2[C@@H]3CCc4cc(OC)ccc4[C@H]3CC[C@@]21C yielded a cell viability of 92.9%.
CC(C)NCC(O)c1ccc(NS(C)(=O)=O)cc1 (centres undefined) was tested, and the cell viability was 94.8%.
CC(=O)N1CCN(c2ccc(OCC3COC(Cn4ccnc4)(c4ccc(Cl)cc4Cl)O3)cc2)CC1 (centres undefined) gave a cell viability of 114%.
In the case of C[C@H](NC(=O)Cc1cc(F)cc(F)c1)C(=O)N[C@@H]1C(=O)N(C)c2ccccc2-c2ccccc21, the cell viability is reported as 101%.
For O=c1c(-c2ccc(O)cc2)coc2cc(O)cc(O)c12, the cell viability was 120%.
Compound O=C1C=C2CC3(O)COc4cc(O)ccc4C3=C2C=C1O (centres undefined) has a cell viability of 99.3%.
N[C@H](Cc1ccccc1)C(=O)O was tested, and the cell viability was 109%.
Work on CCCc1nc(C)c2c(O)nc(-c3cc(S(=O)(=O)N4CCN(CC)CC4)ccc3OCC)nn12 yielded a cell viability of 105%.
In the case of CNC(=C[N+](=O)[O-])NCCSCc1ccc(CN(C)C)o1, the cell viability is reported as 100%.
In the case of COc1cc2c(cc1OC)-c1cc3ccc(OC)c(OC)c3c[n+]1CC2, the cell viability is reported as 95.7% and 88.9%.
COC(=O)[C@H]1[C@H]2C[C@@H]3c4[nH]c5cc(OC)ccc5c4CCN3C[C@H]2C[C@@H](OC(=O)c2cc(OC)c(OC)c(OC)c2)[C@@H]1OC was tested, and the cell viability was 106%.
Compound CC(=O)C12OC(C)(c3ccccc3)OC1CC1C3CCC4=CC(=O)CCC4(C)C3CCC12C (centres undefined) has a cell viability of 89.4%.
CC(C)(CO)[C@@H](O)C(=O)NCCCO gave a cell viability of 103%.
Work on CC(C)C[C@H](NC(=O)CNC(=O)c1cc(Cl)ccc1Cl)B(O)O [Ixazomib (MLN2238)] yielded a cell viability of 1.39%.
O=C(O[C@@H]1Cc2c(O)cc(O)cc2O[C@@H]1c1cc(O)c(O)c(O)c1)c1cc(O)c(O)c(O)c1 [(-)-Epigallocatechin gallate] was tested, and the cell viability was 98.3%.
Compound O=C(O[C@@H]1Cc2c(O)cc(O)cc2O[C@@H]1c1cc(O)c(O)c(O)c1)c1cc(O)c(O)c(O)c1 has a cell viability of 94.8%.
In the case of CC(C(=O)O)[C@H]1CCC2C3CC=C4C[C@@H](O)CC[C@]4(C)C3CC[C@@]21C (stereo partly drawn) [3beta-HYDROXY-23,24-BISNORCHOL-5-ENIC ACID], the cell viability is reported as 109%.
In the case of CCN(CC)CCNC(=O)c1ccc(NC(C)=O)cc1, the cell viability is reported as 101%.
CCOc1ccn(-c2ccc(F)cc2)c(=O)c1C(=O)Nc1ccc(Oc2ccnc(N)c2Cl)c(F)c1 gave a cell viability of 79%.
In the case of CNC[C@H](O)c1cccc(O)c1, the cell viability is reported as 101%.
With Cc1cccc(-c2[nH]c(C(C)(C)C)nc2-c2ccc3nccnc3c2)n1 the cell viability was 115%.
With CC[C@@]1(O)C(=O)OCc2c1cc1n(c2=O)Cc2cc3cc(O)ccc3nc2-1 the cell viability was 7.32%.
In the case of O=C1C(CC[S+]([O-])c2ccccc2)C(=O)N(c2ccccc2)N1c1ccccc1 (centres undefined), the cell viability is reported as 112%.
With NS(=O)(=O)c1cc2c(cc1Cl)N=C(CSCc1ccccc1)NS2(=O)=O the cell viability was 104%.
In the case of CC(=O)OC/C=C(C)/C=C/C=C(C)/C=C/C1=C(C)CCCC1(C)C, the cell viability is reported as 118%.
Compound N=c1ccn2c(n1)O[C@H]1[C@H](O)[C@@H](CO)O[C@H]12 has a cell viability of 5.77%.
CS(=O)(=O)c1ccc([C@@H](O)[C@@H](CO)NC(=O)C(Cl)Cl)cc1 gave a cell viability of 96.4%.
With O=c1[nH]cc(F)c(=O)[nH]1 the cell viability was 90.4%.
Compound O=c1[nH]cc(F)c(=O)[nH]1 [Adrucil (Fluorouracil)] has a cell viability of 89.3%.
With C[C@]12C=CC(=O)C=C1CC[C@@H]1[C@@H]2[C@@H](O)C[C@@]2(C)[C@H]1CC[C@]2(O)C(=O)CO the cell viability was 77.6%.
Work on O=C(O)Cc1ccccc1Nc1c(Cl)cccc1Cl yielded a cell viability of 96.8%.
C[C@@H]1O[C@@H](Oc2c(-c3ccc(O)c(O)c3)oc3cc(O)cc(O)c3c2=O)[C@H](O)[C@H](O)[C@H]1O gave a cell viability of 100%.
Work on COC(=O)C1=C(C)NC(C)=C(C(=O)OC)C1c1ccccc1[N+](=O)[O-] yielded a cell viability of 97.2%.
With COc1cc2c(cc1O)CC[C@@H]1[C@@H]2CC[C@]2(C)[C@@H](O)CC[C@@H]12 [2-Methoxyestradiol] the cell viability was 13.7%.
Nc1ccc(O)c(C(=O)O)c1 showed a cell viability of 89.2%.
Clc1ccccc1CN1CCc2sccc2C1 gave a cell viability of 116%.
In the case of Cc1cc(OC(=O)c2c(C)cc(O)cc2O)cc(O)c1C(=O)O, the cell viability is reported as 103%.
CN(C)CCCN1c2ccccc2CCc2ccc(Cl)cc21 was tested, and the cell viability was 97.2%.
With Cc1cc(C(C)(C)CC(C)(C)C)ccc1OCCOCC[N+](C)(C)Cc1ccccc1 the cell viability was 88.2%.
In the case of Cc1cc(NC(=O)C2=C(O)c3ccccc3S(=O)(=O)N2C)no1, the cell viability is reported as 103%.
Compound C#C[C@]1(OC(C)=O)CC[C@H]2[C@@H]3CCC4=C[C@@H](OC(C)=O)CC[C@@H]4[C@H]3CC[C@@]21C has a cell viability of 83.8%.
In the case of CC(C)[C@H](C(=O)Nc1ccc(C(=O)NO)cc1)c1ccccc1, the cell viability is reported as 0.459%.
Nc1ccc(S(=O)(=O)Nc2ncccn2)cc1 gave a cell viability of 100%.
CC(=O)NCC(=O)N1[C@@H]2CC[C@H]1c1ccc(Nc3ncc(C(F)(F)F)c(NC4CCC4)n3)cc12 showed a cell viability of 20.2%.
Work on CO[C@@]1(NC(=O)C(C(=O)O)c2ccc(O)cc2)C(=O)N2C(C(=O)O)=C(CSc3nnnn3C)CO[C@@H]21 (some centres undefined) yielded a cell viability of 83.2%.
O=c1c(O)c(-c2ccccc2)oc2ccccc12 showed a cell viability of 97.5%.
Work on C#C[C@]1(O)CC[C@H]2[C@@H]3CCC4=CC(=O)CC[C@@H]4[C@H]3CC[C@@]21C yielded a cell viability of 99.4%.
CN(C)CCc1c[nH]c2ccc(C[C@H]3COC(=O)N3)cc12 showed a cell viability of 65.8%.
With CN(C)CCC=C1c2ccccc2C=Cc2ccccc21 the cell viability was 101%.
In the case of NS(=O)(=O)c1cc2c(cc1Cl)NCNS2(=O)=O, the cell viability is reported as 98.3%.
CNNCc1ccc(C(=O)NC(C)C)cc1 [Procarbazine hydrochloride (Matulane)] showed a cell viability of 50.4%.
Nc1ccc(C(=O)Oc2ccccc2)c(O)c1 showed a cell viability of 99.4%.
Compound C[n+]1cccc(C(=O)[O-])c1 has a cell viability of 97.7%.
O=C(O)c1cc(O)c2c(c1)[C@H]([C@H]1c3cc(C(=O)O)cc(O)c3C(=O)c3c(O[C@@H]4O[C@H](CO)[C@@H](O)[C@H](O)[C@H]4O)cccc31)c1cccc(O[C@@H]3O[C@H](CO)[C@@H](O)[C@H](O)[C@H]3O)c1C2=O gave a cell viability of 58%.
In the case of CC(c1cc2ccccc2s1)N(O)C(N)=O (centres undefined), the cell viability is reported as 95.3%.
Work on CC(c1cc2ccccc2s1)N(O)C(N)=O (centres undefined) [Zileuton] yielded a cell viability of 118%.
With NC(=O)c1ncn([C@@H]2O[C@H](CO)[C@@H](O)[C@H]2O)c1N the cell viability was 119%.
CCC(=O)O[C@H]1[C@H](O[C@@H]2[C@@H](C)[C@H](O[C@H]3C[C@@](C)(OC)[C@@H](O)[C@H](C)O3)[C@@H](C)C(=O)O[C@H](CC)[C@@](C)(O)[C@H](O)[C@@H](C)C(=O)[C@H](C)C[C@@]2(C)O)O[C@H](C)C[C@@H]1N(C)C gave a cell viability of 89.8%.
Work on OC[C@@H](O)[C@@H](O)[C@H](O)[C@@H](O)CO yielded a cell viability of 106%.
In the case of CCCCCCCCCCCCCc1ccco1, the cell viability is reported as 97.1%.
In the case of COc1cc(C(=O)N2CCOCC2)cc(OC)c1OC, the cell viability is reported as 96.1%.
With CC(=O)OCC(=O)[C@@]1(O)CC[C@H]2[C@@H]3CCC4=CC(=O)CC[C@]4(C)[C@H]3C(=O)C[C@@]21C the cell viability was 101%.
CCCCC(=O)O[C@]1(C(=O)CO)[C@@H](C)C[C@H]2[C@@H]3CCC4=CC(=O)C=C[C@]4(C)[C@@]3(F)[C@@H](O)C[C@@]21C showed a cell viability of 70.8%.
Compound COc1cc(O)c(C(C)=O)c(OC)c1 has a cell viability of 101%.
In the case of CN(C)CCCOc1nn(Cc2ccccc2)c2ccccc12, the cell viability is reported as 82.5%.
Work on Nc1ccc(S(=O)(=O)Nc2ccc(Cl)nn2)cc1 yielded a cell viability of 89.8%.
CC(C)(O)CC[C@@H](O)[C@](C)(O)[C@H]1CC[C@@]2(O)C3=CC(=O)[C@@H]4C[C@@H](O)[C@@H](O)C[C@]4(C)[C@H]3CC[C@]12C was tested, and the cell viability was 101%.
